No constants are given. Whether binding was seen depends on the method and setting.
Legend:
[1] = biological target: receiver domain (RD) of Arabidopsis thaliana ETHYLENE RESPONSE1 (ETR1), residues 605-738 (Arabidopsis thaliana) (UniProt P49333); assay: NMR 15N relaxation (rotational correlation time from R1 and R2); 25°C, 600.13 MHz; Tris buffer; HEPES buffer also did not give a dimer; both purified
[2] = biological target: receiver domain (RD) of Arabidopsis thaliana ETHYLENE RESPONSE1 (ETR1), residues 605-738 (Arabidopsis thaliana) (UniProt P49333); assay: NMR titration; ~0.1 mM ETR1-RD, 40 mM Tris-HCl pH 7.0, 150 mM NaCl, with 10 mM Mg2+ and/or 3 mM BeF3-; both purified
[3] = biological target: receiver domain (RD) of Arabidopsis thaliana ETHYLENE RESPONSE1 (ETR1), residues 605-738 (Arabidopsis thaliana) (UniProt P49333); assay: SEC; FPLC size-exclusion chromatography, Sephacryl S-100, 40 mM Tris-HCl pH 7.0, 150 mM NaCl, 1 mM EDTA; with SDS-PAGE; both purified

binding [1]: no binding | binding [2]: no binding (tested: ~0.1 mM) | binding [3]: no binding
B1: receiver domain (RD) of Arabidopsis thaliana ETHYLENE RESPONSE1 (ETR1), residues 605-738 (domain or fragment, UniProt P49333 605-738)
chain: SNFTGLKVLVMDENGVSRMVTKGLLVHLGCEVTTVSSNEECLRVVSHEHKVVFMDVCMPGVENYQIALRIHEKFTKQRHQRPLLVALSGNTDKSTKEKCMSFGLDGVLLKPVSLDNIRDVLSDLLEPRVLYEGM

— publication PMC4972365
